At least one structure is not confirmed: it was looked up by name or label, or the drawing left a doubt.
Test system: XEN-like cells
Assay: qRT-PCR of neural, fibroblast and XEN genes in the absence of single Stage 2 medium components
Format: cell-based, mouse
Settings: genes examined in the absence of the factor; FIG. 1F

SMILES: C=C[C@@]1(C)CC(=O)[C@]2(O)[C@@]3(C)[C@@H](O)CCC(C)(C)[C@@H]3[C@H](O)[C@H](OC(C)=O)[C@@]2(C)O1 [Forskolin]
- role of the stage 2 medium component for neural-, fibroblast- and XEN-specific gene expression: important for downregulating fibroblast-specific genes

Reference: patent US12018278B2, “Methods for chemically induced lineage reprogramming” (BeiHao Stem Cell and Regenerative Medicine Research …, priority 2017, dated 2024)
